Laboratory results published in US9765113B2, “Methods and agents for the treatment of cancer” (INTERK PEPTIDE THERAPEUTICS LIMITED, priority 2003, dated 2017).
At least one peptide structure holds a part that was inferred or is arguable (an end, a ring closure or a residue). Ends that are not written are not given here.

How the values were obtained:
[1] = tested on: HT29 colon cancer xenografts; assay: In vivo tumour growth of HT29 colon cancer xenografts; design: species or system Balb/c athymic mice; conditions: intra-tumoural injections twice weekly for four weeks, FIG. 18A
Procedure: Balb/c female athymic mice (8 weeks of age obtained from the Animal Resource Centre, Perth, Western Australia) were maintained under pathogen-free conditions and fed standard mouse chow and water ad lib. The mice were divided into groups of ten each. Mice in different groups were marked by ear notching. Briefly, the mice were anaesthetised using isoflurothane by inhalation and their ears marked using a surgical punch. After a recovery period of 48 hours, the mice in each group were injected with 1×10^6 HT29 colon cancer cells in standard DMEM culture medium subcutaneously dorsally behind the right shoulder using a 21-gauge needle. Animal weights and tumour sizes (breadth and length measured with callipers) were recorded weekly. Mice were sacrificed by CO2 asphyxiation and tumour mass excised for measurement.
Mice were injected twice weekly for four weeks commencing 10 days after tumour cell inoculation with DMEM, signal peptide ([…]) (designated “carrier”) (SEQ ID No: 1) or the […] (IK-1) (SEQ ID No: 19) peptide agent, and tumour growth was compared to an untreated control group.
Colon cancer inhibition by peptide […] (IK2P) (SEQ ID No: 18) administered intravenously to colon tumour bearing Balb/c athymic mice as per the protocol described above, is shown in FIG. 20. Colon tumour xenografts were achieved by injection of 1×10^6 HT29 colon cancer cells as above. […]

[2] = tested on: cancer cell lines; assay: Proliferation of cancer cell lines with signal peptide alone; type: cell-based; conditions: any cancer cell lines tested, data not shown

**Q.** For “AAVALLPAVLLALLA [nfkb, reference compound]”, which “tumour growth compared to untreated control group” value [1] is on record?
**A.** greater than the untreated control mice group

**Q.** And the “effect of signal peptide alone on proliferation” value [2]?
**A.** essentially no effect
